± gives the standard deviation of the averaged measurements. This is one part of the list. Most values lie within the scatter of the assay; repeated measurements hardly agree.

This test relates to IL-6-GFP PC-9. As to the kind of experiment: IL-6-GFP fluorescence relative to DMSO control (fraction of control); higher = more IL-6-GFP expression. As to conditions: compound concentration: 10 uM; treatment time: 48 h. As to the method:
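IL-6-GFP-overexpressing PC-9 and PC-9GR EGFR-mutant lung cancer cells (3000 cells/well, 96-well) were treated for 48 h with each compound of the Selleck L2000 library at 10 uM. IL-6-GFP fluorescence was read on a high-content screening system, and viability by CCK-8 absorbance on a parallel plate set. Each value was normalised as compound well / DMSO control well; two independent replicates.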
`COc1ccc2c(c1)c(CC(=O)OCC(=O)O)c(C)n2C(=O)c1ccc(Cl)cc1` [Acemetacin] returned an IL-6-GFP fluorescence of 0.758 ± 0.12. In turn, `CCCS(=O)(=O)Nc1ccc(F)c(C(=O)c2c[nH]c3ncc(-c4ccc(Cl)cc4)cc23)c1F` [Vemurafenib (PLX4032, RG7204)] displayed an IL-6-GFP fluorescence of 0.901 ± 0.049. `C=CC(=O)Nc1cc(Nc2nccc(-c3cn(C)c4ccccc34)n2)c(OC)cc1N(C)CCN(C)C.CS(=O)(=O)O` [Osimertinib mesylate]: the IL-6-GFP fluorescence came to 1.18 ± 0.085. With `CCC1(O)C(=O)OCc2c1cc1n(c2=O)Cc2cc3c(CN(C)C)c(O)ccc3nc2-1.Cl` (centres undefined) [Topotecan HCl] the figure was 2.2 ± 0.22.

As to `Nc1ccn(C2OC(CO)C(O)C2O)c(=O)n1` (centres undefined) [Cytarabine], the IL-6-GFP fluorescence worked out at 0.845 ± 0.034.

Consider `CCCCCCCCCCCCCCCCCCOP(=O)([O-])OC1CC[N+](C)(C)CC1` [Perifosine (KRX-0401)], for which the IL-6-GFP fluorescence came to 0.641 ± 0.029.

As to `COc1c2occc2cc2ccc(=O)oc12` [Methoxsalen], the IL-6-GFP fluorescence was determined as 0.926 ± 0.067. `CCc1nc(C(N)=O)c(Nc2ccc(N3CCC(N4CCN(C)CC4)CC3)c(OC)c2)nc1NC1CCOCC1` [Gilteritinib (ASP2215)]: the IL-6-GFP fluorescence worked out at 0.827 ± 0.31. The compound `CNC(=O)c1cc(Oc2ccc(NC(=O)Nc3ccc(Cl)c(C(F)(F)F)c3)cc2)ccn1` [Sorafenib] yielded an IL-6-GFP fluorescence of 0.945 ± 0.11.

For the origin of these results see the supplement of paper PMC8866396.
